This is one part of the list.

The target of the assay is T1, OsSMF1 (Oryza sativa, UniProt Q6ZLB0 1-436).
T1 sequence: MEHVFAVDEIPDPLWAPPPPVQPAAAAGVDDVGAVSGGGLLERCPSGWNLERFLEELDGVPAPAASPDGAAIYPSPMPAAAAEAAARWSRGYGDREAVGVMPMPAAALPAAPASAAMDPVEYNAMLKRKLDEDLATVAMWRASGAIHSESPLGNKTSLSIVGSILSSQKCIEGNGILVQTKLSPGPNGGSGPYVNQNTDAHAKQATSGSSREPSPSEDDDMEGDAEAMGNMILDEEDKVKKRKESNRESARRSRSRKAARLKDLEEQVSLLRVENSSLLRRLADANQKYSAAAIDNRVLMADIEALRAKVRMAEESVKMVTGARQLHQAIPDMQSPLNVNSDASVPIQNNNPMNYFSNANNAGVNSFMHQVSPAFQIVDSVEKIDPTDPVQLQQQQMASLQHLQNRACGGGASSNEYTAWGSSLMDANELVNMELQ
Briefly: protein-binding microarray (RPBM); PBS, 2% BSA, 51.3 ng/ul salmon testes DNA, 50 uM zinc acetate, 200 nM TF, 25 C, 1 h; high values mean tight binding. Conditions: protein: recombinant; tags: N-terminal polyhistidine and DsRed monomer fusion (pET32a); chain copies: 2; label: CyDye5-dUTP incorporated in the synthesized complementary strand; 3' TTTTT single-stranded linker to array surface; dsDNA, one strand shown. Put shortly: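 Using Ni–NTA, transcription factors fused N-terminally to polyhistidine and DsRed were purified after expression in E. coli BL21-CodonPlus. These were incubated at 200 nM with a blocked, double-stranded custom Agilent array for 1 h at 25 °C in a buffer containing 50 µM zinc acetate, and the array was washed. The binding signal is per-feature fluorescence intensity (arbitrary units) on an Axon 4000B scanner.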
Turning to “CCTGTTTCCCTAGTATCTTTGATAACCATGCTCACCATATCGGAGTCACCTAGTGCAG”, the binding signal is 3400 fluorescence intensity (a.u.). Regarding “TCCCCACGCTCCCCGTCACCAACCACCCTTTTCCCCGGAACGGAGTCACCTAGTGCAG”, the binding signal was 4880 fluorescence intensity (a.u.). The figure for “AAATTACTAGGAGAAGCCAACACGTGTCCAGAAGGAAGAACGGAGTCACCTAGTGCAG” is 3820 fluorescence intensity (a.u.); for “ATGGTCTCACATGTCATACACATATTCCGTCTTGGAGTTCCGGAGTCACCTAGTGCAG” it is 3240 fluorescence intensity (a.u.); for “GACGAGGAGCAGGAGGAAGCATTTGAGCGTCGTCACGGTTCGGAGTCACCTAGTGCAG” it is 3200 fluorescence intensity (a.u.). Turning to “AGCCACCGCCGGCCACATCCCTCGCACGTCTGCGCTCGCCCGGAGTCACCTAGTGCAG”, the binding signal is 4690 fluorescence intensity (a.u.). Regarding “ATGTGGGTGTGTGAATGACAAATGGGTCCCACGTATAACTCGGAGTCACCTAGTGCAG”, the binding signal is 4460 fluorescence intensity (a.u.). The figure for “AGGTTCGCCTACCGGTTGCTGTTCGAGCGGGAGGTGTCAGCGGAGTCACCTAGTGCAG” is 3360 fluorescence intensity (a.u.). For “TGTTGACATGTTGACGATATGTGGCCAGATCGTCTCGACACGGAGTCACCTAGTGCAG”, the binding signal was 3590 fluorescence intensity (a.u.). The figure for “GCCACTGTGAGGCGCATAACATGGCTGCGCGCCTCGCTTGCGGAGTCACCTAGTGCAG” is 3720 fluorescence intensity (a.u.); for “ACTGAGGCGCGGGGTATTACTGCATCACGCTTCGGCTTCCCGGAGTCACCTAGTGCAG” it is 22800 fluorescence intensity (a.u.). The figure for “ATATGTTGTCCAAGTCATCGTTGATTTTGAGTTGTGCTGTCGGAGTCACCTAGTGCAG” is 9580 fluorescence intensity (a.u.). “TTGCGATGCTGCTACGGGATAGTGACGGCTGTTTACAATCCGGAGTCACCTAGTGCAG”: the binding signal was 29600 fluorescence intensity (a.u.). Consider “CTTGAAGTCTATGCCACATCACATTCCTGGTGTAAACGCACGGAGTCACCTAGTGCAG”, for which the binding signal was 8230 fluorescence intensity (a.u.). In the case of “CCAATCACCGCCCTCCACGTGGCAAATCTCGCTTCGACTCCGGAGTCACCTAGTGCAG”, the binding signal was 15400 fluorescence intensity (a.u.). In the case of “CGAGCTACTCAAACACTTTCACAGGCAGTGGCAGTGGAACCGGAGTCACCTAGTGCAG”, the binding signal was 3710 fluorescence intensity (a.u.).

On to “GTCAATGCTGAAGAATAAACAACAAATGCTTGGCCATAGCCGGAGTCACCTAGTGCAG”, for which the binding signal was 3680 fluorescence intensity (a.u.). The figure for “AATATTGCATTTGCACTCTTCCACGAGGGCAACTATTGTTCGGAGTCACCTAGTGCAG” is 4690 fluorescence intensity (a.u.); for “CCTCTTGCTAAATACGCTTCGTACGCGTGGTCTTCGGTAGCGGAGTCACCTAGTGCAG” it is 4050 fluorescence intensity (a.u.). In the case of “ACCATCTTTCTCTTTACCATGATCATTTTAGCATCTTTGACGGAGTCACCTAGTGCAG”, the binding signal is 3160 fluorescence intensity (a.u.). Consider “ATCCATGAGCTGTTGCTGCAAATCCTCGCTATTCTTTCCGCGGAGTCACCTAGTGCAG”, for which the binding signal is 3340 fluorescence intensity (a.u.).

Consider “AGGCGTAGCTCAGTGCTTATGTCAGCAGGGTCTGAATAGGCGGAGTCACCTAGTGCAG”, for which the binding signal was 5390 fluorescence intensity (a.u.). As to “TACCATGATATTATCCTTGCTGCCACATCCTCGTTTCGTCCGGAGTCACCTAGTGCAG”, the binding signal was 3660 fluorescence intensity (a.u.). Regarding “ATCATCACTCACCGACACCGTGGGTCCCACCGAACTCCCGCGGAGTCACCTAGTGCAG”, the binding signal is 3180 fluorescence intensity (a.u.). As to “GGAAAACATACACCGAAGGTCCTTGGACTTGTCATCGAGTCGGAGTCACCTAGTGCAG”, the binding signal is 3190 fluorescence intensity (a.u.). For the sequence “CGGGGCTAGGCCGCCGGTGGGGAGGCTTCGGGAGGTGGGGCGGAGTCACCTAGTGCAG”, the binding signal is 3210 fluorescence intensity (a.u.). Regarding “AATTCAGTCACCAACTGTTCGACGGATTGCTAGTTTGCCACGGAGTCACCTAGTGCAG”, the binding signal is 3680 fluorescence intensity (a.u.). Turning to “AAACCATCAAATCTGATTTACCCGCTTGAATGGATGGCAACGGAGTCACCTAGTGCAG”, the binding signal was 3680 fluorescence intensity (a.u.).

Consider “TATACGACATATACAAACTTTGTATATGACGTAGACAAAACGGAGTCACCTAGTGCAG”, for which the binding signal was 5140 fluorescence intensity (a.u.). For “GGAAGAAAGACGAGTGGTTGCCACGTGGCACGCCGGGTCCCGGAGTCACCTAGTGCAG”, the binding signal was 16100 fluorescence intensity (a.u.). For “AACAATTTTGGTCAATTCAGAATAGCTGACTGTGTATTGTCGGAGTCACCTAGTGCAG”, the binding signal is 7340 fluorescence intensity (a.u.). For the sequence “CTCATTCTGCGTGCCCTTACTTAATCCTCATCCTCATTACCGGAGTCACCTAGTGCAG”, the binding signal was 3330 fluorescence intensity (a.u.). The figure for “ACTGCGCGTGGGCGGGCGTGACGTGCAGCTCCCGCGGCGCCGGAGTCACCTAGTGCAG” is 7280 fluorescence intensity (a.u.); for “TTTCTTTCTTTCTGCATGATTCAGTTTTCCCGTTGTTGATCGGAGTCACCTAGTGCAG” it is 3600 fluorescence intensity (a.u.); for “TGACTCAGTATCGATCTGACGTGGCGCTTACGTGGCAATTCGGAGTCACCTAGTGCAG” it is 48000 fluorescence intensity (a.u.).

“TGTCGGAGCCCGCGAGGATGTCCTTCTTCTTCTTCTCCTCCGGAGTCACCTAGTGCAG”: the binding signal was 3360 fluorescence intensity (a.u.).

For “CGGAGCGTGCGTCGTCGTCACCGGCGATCCCCACCCACCTCGGAGTCACCTAGTGCAG”, the binding signal is 4600 fluorescence intensity (a.u.). The figure for “CACTGCCGCCGCCCAGCCCTACAGCAGCTGCCACGTGCACCGGAGTCACCTAGTGCAG” is 9530 fluorescence intensity (a.u.). On to “ACAAACCGAAAATAGGTTATTAATATTGCTGCAAACTGATCGGAGTCACCTAGTGCAG”, for which the binding signal is 3190 fluorescence intensity (a.u.).

Turning to “GAATTATTTGGTCAGTGTCACTTGCTGCCAGGACCCAACACGGAGTCACCTAGTGCAG”, the binding signal was 3910 fluorescence intensity (a.u.). For “TACTAGTGTGGACATGTTCCCCTTTTCAGGAAGATGGCAGCGGAGTCACCTAGTGCAG”, the binding signal was 40300 fluorescence intensity (a.u.).

“CGCTCATGAAGCTCCTTCCCTACGCGCGCTCGCCGAATCGCGGAGTCACCTAGTGCAG”: the binding signal is 44000 fluorescence intensity (a.u.).
